# Primary screen of a compound library

Each number is a percent effect as filed. The record does not define 0% and 100%; most values in the screen are far below 50% and negative numbers occur (in some assays of this library far below -100). The compounds are a random part of those screened. Two or more numbers in one place are separate tests of the same structure; such repeats can differ widely.

A: 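Growth of Mycobacterium tuberculosis over 3 days (7H9 medium with glucose and tyloxapol); the read-out is not stated. Concentration: 50 µM. The record gives no direction; compounds that gave an IC50 in retests scored well above the rest, so higher reads as more growth inhibition. Of about 69,000 compounds tested this way, about 760 (1.1%) reached 50% or more in at least one test.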
B: 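Growth of Mycobacterium tuberculosis over 4 days (cholesterol / DPPC medium with tyloxapol); the read-out is not stated. Tested at 50 µM. Higher reads as more growth inhibition (inferred: compounds with an IC50 in retests scored well above the rest). Of about 69,000 compounds tested this way, about 370 (0.54%) reached 50% or more in at least one test.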

Cc1ccc(N2CCCC(NCc3ccc4c(c3)CCO4)C2)nn1 (centres undefined) gave A: 4.232%; B: -0.5344%. Result for CCN(C)c1ncnc2c1CCN(CC1CCOC1)CC2.O=C(O)C(F)(F)F (centres undefined) was A: -0.3687%; B: -3.281% and -5.402%. With COCCN(Cc1ccoc1)S(=O)(=O)c1ccc(OC)c(Cl)c1 the screen gave A: 10.97%; B: 4.064%. Cc1ccc(CN(C)C(=O)CNC(C)(C)c2noc(C(C)(C)C)n2)o1 read A: -35.59%; B: -7.734%. Cn1ccc(CN2CCCC2c2ccc3c(c2)OCCCO3)cc1=O (centres undefined) read A: -6.962%; B: -17.68%. CC(C)c1ccc(OCC(=O)NS(=O)(=O)c2cccnc2)cc1 gave A: -13.11%; B: -6.718%. With Cc1cc(C)c2c(N3CCN(C(=O)N(C)C)CC3)ncnc2n1 the screen gave A: 16.75%; B: -2.345%.

Result for O=C(CCCN1CCCCC1)N1CCN(C(=O)c2nc[nH]n2)CC1 was A: 38.35%; B: -17.2%. COc1cccc(COc2nc(C(C)C)no2)c1 gave A: -52.44%; B: -51.81%. Result for CC(C)(CNC(=O)C1(c2cccc(Br)c2)CCOCC1)C(=O)O was A: -10.96%; B: -1.806%. CCN1CCCC(O)(CNCc2ccccc2F)C1 (centres undefined) read A: 1.131%; B: 21.14%. Result for CCc1ccc(C(C)NC(=O)CN(C)Cc2ccc(C)o2)cc1 (centres undefined) was A: 29.25%; B: -8.099%. For CC(C)n1nc(CN2CCCC2=O)c2c1CN(C(=O)c1ccno1)C2 the result was A: -22.75%; B: -0.1009%. CC(=O)N1CCCCCC1C1CCN(c2ncccc2C#N)CC1 (centres undefined) gave A: 20.84%; B: 10.28%.

CCN(Cc1ccoc1)C(C(N)=O)c1cccc(Br)c1 (centres undefined) read A: 8.36%; B: -4.538%. CN(C)CCOCC1CN(Cc2ccsc2)Cc2ccnn2C1.O=C(O)C(F)(F)F.O=C(O)C(F)(F)F.O=C(O)C(F)(F)F (centres undefined) read A: 4.874%; B: -10.66%. N#Cc1cccc(NC2CC(=O)N(CCCc3ccccc3)C2)n1 (centres undefined) gave A: 8.354%; B: -1.021%. Result for Cc1cccc(N2CCOC(C(=O)O)C2)c1 (centres undefined) was A: -10.96%; B: -4.434%. With NCc1n[nH]c(=O)n1-c1cccc(Cl)c1Cl the screen gave A: -22.78%; B: -12.33%. O=C(Nc1ccccc1)c1nn(C2CCS(=O)(=O)C2)c2c1CCCC2 (centres undefined) gave A: -1.652% and -23.28%; B: -4.472%. With Cc1noc(CS(=O)(=O)C/C=C/c2ccccc2)n1 the screen gave A: -1.439% and -11.64%; B: -18.19% and 4.479%.

NC(=O)NC(=O)CCN1CCN(CC2CC2)c2ccccc21 read A: -5.404%; B: -39.31%. Cc1cnn(C2CN(c3nc(C)cc(N(C)C)n3)C2)c1 read A: -4.485%; B: -1.998%. For COc1cc(Cl)ccc1C(=O)N1CCCC(n2nc(C)nc2C)C1 (centres undefined) the result was A: -8.36%; B: -8.471%. CSc1ncc(C(=O)N2CCC(O)(CN3CCOCC3)C(C)(C)C2)cn1 (centres undefined) read A: -6.691%; B: -2.884%. Cc1ncc(CNC2CC(=O)N(CCc3cccc(Cl)c3)C2)n1C (centres undefined) gave A: 6.829%; B: 16.55%. COc1c(Br)cc(Br)cc1CNC(C)Cn1cccn1 (centres undefined) gave A: -7.452%; B: -15.76%. With CC(C)OCCCNC(=O)CN(c1ccc(F)c(F)c1)S(C)(=O)=O the screen gave A: 32.49%; B: -6.144%.

For CC(C)C(CCO)NC(=O)Nc1ccc(-c2csnn2)cc1 (centres undefined) the result was A: 6.474%; B: -10.08%.

The first 4 entries again:

structure,A,B
Cc1ccc(N2CCCC(NCc3ccc4c(c3)CCO4)C2)nn1 (centres undefined),4.232,-0.5344
CCN(C)c1ncnc2c1CCN(CC1CCOC1)CC2.O=C(O)C(F)(F)F (centres undefined),-0.3687,-3.281 and -5.402
COCCN(Cc1ccoc1)S(=O)(=O)c1ccc(OC)c(Cl)c1,10.97,4.064
Cc1ccc(CN(C)C(=O)CNC(C)(C)c2noc(C(C)(C)C)n2)o1,-35.59,-7.734

Measurements from “University of Dundee, Small-Polar-MMV Screening Library” (2021), ChEMBL document CHEMBL3988442.